The results in this text go back to PMC11295518.

Chains of the proteins cited; added tags and fusions are not shown.
UniProt P09651: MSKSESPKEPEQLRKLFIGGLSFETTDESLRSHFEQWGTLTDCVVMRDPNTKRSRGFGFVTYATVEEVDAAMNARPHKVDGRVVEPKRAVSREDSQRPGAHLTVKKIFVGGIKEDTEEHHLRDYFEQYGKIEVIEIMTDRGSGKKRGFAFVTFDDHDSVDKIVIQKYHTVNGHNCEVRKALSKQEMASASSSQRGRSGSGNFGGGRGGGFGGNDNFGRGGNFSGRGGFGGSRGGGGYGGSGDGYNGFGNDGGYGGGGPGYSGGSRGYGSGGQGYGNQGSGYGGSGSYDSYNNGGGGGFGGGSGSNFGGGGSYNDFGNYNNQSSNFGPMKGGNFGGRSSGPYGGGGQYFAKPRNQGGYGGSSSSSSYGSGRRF
UniProt Q96SB4: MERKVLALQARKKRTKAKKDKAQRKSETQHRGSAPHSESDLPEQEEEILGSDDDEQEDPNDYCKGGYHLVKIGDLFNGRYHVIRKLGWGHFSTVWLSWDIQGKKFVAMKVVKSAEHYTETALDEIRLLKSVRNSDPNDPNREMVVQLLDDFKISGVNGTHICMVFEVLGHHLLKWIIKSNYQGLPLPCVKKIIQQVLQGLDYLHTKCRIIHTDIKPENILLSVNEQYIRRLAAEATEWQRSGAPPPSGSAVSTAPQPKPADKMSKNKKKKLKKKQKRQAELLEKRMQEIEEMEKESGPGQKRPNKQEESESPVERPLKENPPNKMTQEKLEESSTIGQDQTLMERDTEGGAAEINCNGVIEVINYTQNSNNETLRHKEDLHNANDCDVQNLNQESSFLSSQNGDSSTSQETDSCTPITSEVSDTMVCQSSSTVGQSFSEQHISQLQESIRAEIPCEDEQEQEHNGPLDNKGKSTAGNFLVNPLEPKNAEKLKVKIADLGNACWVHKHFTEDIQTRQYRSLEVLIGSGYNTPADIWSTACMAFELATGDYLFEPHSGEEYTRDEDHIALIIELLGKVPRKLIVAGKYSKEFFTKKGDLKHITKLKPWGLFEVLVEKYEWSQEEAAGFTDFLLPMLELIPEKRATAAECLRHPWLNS

These are yes or no findings as the source states them, for the method shown. In cells and extracts the contact can be indirect. Some results given as binding are weak or reduced against the parent protein; the word gives no strength.

The test deals with Heterogeneous nuclear ribonucleoprotein A1 (human (endogenous in A549)) (UniProt P09651). The experiment in a line: co-IP; endogenous co-immunoprecipitation in A549 cells with anti-SRPK1 antibody or, vice versa, anti-hnRNPA1 antibody; western blot; IgG as negative control. In general terms: In western blotting, separated proteins are transferred to a membrane and probed.

Take “Serine–arginine protein kinase 1 (from UniProt Q96SB4 1-655)”: the binding result is recorded as “binds”.
